Data on 85 compounds can be found in PubChem BioAssay AID2205 (University of Pittsburgh Molecular Library Screening Center, 2009).

The list shows a part of the results.

A short description of this experiment: tubulin staining increase by stabilizing compounds – imaging, high-content imaging, primary screen (AID 2205).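 As to toxicity: 0% = mean cell density of plate MIN control wells and 100% = no cells.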 To be noted: HeLa tubulin immunostaining HCS, 24 h, at 10 µM; % Hoechst-high responders: measured here: nuclear condensation Hoechst responders, stronger effect = higher value, share of cells brighter than vehicle mean+2SD; toxicity: measured here: cytotoxicity by cell density.
`COC(=O)c1cc2c(s1)N=C(c1ccccc1)N(C)P2(=O)N1CCOCC1` (stereo not given) yielded a % Hoechst-high responders of 3.52% and a toxicity of 4.17%.
The like results for `O=c1c2cc([N+](=O)[O-])ccc2[nH]c2c([N+](=O)[O-])cc([N+](=O)[O-])cc12` were, in that order, 5.86% and 20.9%.
The like results for `CP(=O)(Nc1ccccc1)Oc1ccc(F)cc1` (stereo not given) were, in that order, 1.66% and 5.44%.
For `O=P(Nc1ccccn1)(c1ccc(Br)cc1)c1ccc(Br)cc1` the same measures were 2.53% and 7.53%.
As to `COc1ccc(OP(C)(=O)Nc2cccc(Br)c2)cc1` (stereo not given), the % Hoechst-high responders was 2.12% and the toxicity came out at 5.48%.
The like results for `COc1ccc(NP(C)(=O)Oc2ccccc2OC)cc1` (stereo not given) were, in that order, 1.4% and 4.13%.
The like results for `CN(C)CCOC(=O)C(O)(c1ccccc1)C1CCCCC1` (stereo not given) were, in that order, 2.68% and 11.5%.
`O=[N+]([O-])c1cc([N+](=O)[O-])c(NCC2CCS(=O)(=O)C2)c([N+](=O)[O-])c1` (stereo not given) had a % Hoechst-high responders of 2.91% and a toxicity of 1.07%.
For `CC(=O)NC(SC(=S)N(C)C)C(Cl)(Cl)Cl` (stereo not given) the same measures were 2.96% and 8.21%.
Compound `O=C(OC1CN2CCC1CC2)c1cccc(Cl)c1` (stereo not given) displayed a % Hoechst-high responders of 2.27% and a toxicity of 5.29%.
For `C(Cc1nn[nH]n1)Cc1nn[nH]n1` the same measures were 2.94% and 7.44%.
On to `CC(C)C(=O)NC(Sc1ccccc1)C(Cl)(Cl)Cl` (stereo not given), for which the % Hoechst-high responders was determined as 3.41% and the toxicity was determined as 6.34%.
`O=P(Nc1nccs1)(c1ccccc1)c1ccccc1` had a % Hoechst-high responders of 2.41% and a toxicity of 30.5%.
The like results for `c1nnnn1CCn1cnnn1` were, in that order, 2.01% and 14.8%.
For `CCOP(C)(=S)SCC(=O)NC(C)(CC)C(=O)O` (stereo not given) the same measures were 1.27% and 9.1%.
The like results for `CP(=O)(Nc1ccc2c(c1)OCCO2)Oc1ccccc1` (stereo not given) were, in that order, 1.39% and 0.771%.
In turn, `Cc1ccccc1NP(C)(=O)Nc1ccccc1C` yielded a % Hoechst-high responders of 1.19% and a toxicity of 7.06%.
The like results for `O=[N+]([O-])c1cc([N+](=O)[O-])c(-n2nnc3ccccc32)c([N+](=O)[O-])c1` were, in that order, 2.81% and 8.48%.
Compound `O=P1(Nc2ccccn2)COc2ccccc2OC1` had a % Hoechst-high responders of 3.26% and a toxicity of 8.17%.
For `Clc1n[nH]nc1-c1nn[nH][15n]1` the same measures were 3.06% and 5.68%.
For `CC(C)/C=N\N=C(\N)N[N+](=O)[O-]` the same measures were 2.49% and 1.41%.
With `Cc1nc2ccc3ccccc3c2s1.O=[N+]([O-])c1cc([N+](=O)[O-])c(O)c([N+](=O)[O-])c1`, the % Hoechst-high responders came out at 2.37% and the toxicity stood at 1.66%.
Consider `CC1(CBr)Cn2c(nc3ccccc3c2=O)S1` (stereo not given), for which the % Hoechst-high responders was 1.79% and the toxicity came to 0.607%.
For `CC1CCC(C(C)C)C(OP(=O)(Nc2ccccn2)c2ccccc2)C1` (stereo not given) the same measures were 1.38% and 11.1%.
`Cc1nn(-c2ccccc2)c2c1P(=O)(N1CCOCC1)N(C)C(c1ccccc1)=N2` (stereo not given): the % Hoechst-high responders amounted to 2.19% and the toxicity is 3.85%.
For the compound `COc1cc(C2NCCC3(OCCO3)C2(C)C)cc(OC)c1OC.O=[N+]([O-])c1cc([N+](=O)[O-])c(O)c([N+](=O)[O-])c1` (stereo not given), the % Hoechst-high responders is 2.56% and the toxicity turned out to be 6.46%.
The like results for `CN(C)C1(CNC(=O)c2ccc(S(C)(=O)=O)cc2)CCCCC1` were, in that order, 2.33% and 2.47%.
The like results for `O=P1(Nc2ncccn2)COc2ccccc2OC1` were, in that order, 3.26% and 12.8%.
The like results for `COc1ccccc1OP(C)(=O)Nc1c(C)cccc1C` (stereo not given) were, in that order, 1.21% and 12.2%.
`CN1CCCCC1COC(=O)C1(O)c2ccccc2CCc2ccccc21` (stereo not given) came in with a % Hoechst-high responders of 2.19% and a toxicity of 7.41%.
For `CP(=O)(Nc1ccc(SC(F)(F)F)cc1)Oc1ccccc1` (stereo not given) the same measures were 1.53% and 2.05%.
On to `CCCOc1ccc(NP(C)(=O)Oc2ccc(Cl)cc2)cc1` (stereo not given), for which the % Hoechst-high responders amounted to 2.62% and the toxicity amounted to 14.6%.
For `O=P1(Nc2ccc(Br)cn2)COc2ccccc2OC1` the same measures were 1.93% and 4.63%.
For `Cc1ccc(OCC(=O)OC2CN3CCC2CC3)cc1` (stereo not given) the same measures were 1.94% and 4.24%.
The like results for `O=P(Nc1nccs1)(c1ccccc1)c1nc2ccccc2s1` (stereo not given) were, in that order, 1.88% and 3.58%.
For the compound `O=P(Nc1nccs1)(Oc1ccccc1)Oc1ccccc1`, the % Hoechst-high responders turned out to be 2.45% and the toxicity was found to be 6.32%.
Compound `CCOP1(=S)c2c(C)nn(CCC#N)c2N=C(c2ccccc2F)N1C` (stereo not given) came in with a % Hoechst-high responders of 2.3% and a toxicity of 1.25%.
For `CCOP1(=S)c2c(C)nn(CCC#N)c2N=C(c2ccc(F)cc2)N1C` (stereo not given) the same measures were 2.52% and 11.7%.
The like results for `CC1=NCCc2c1[nH]c1ccccc21.O=[N+]([O-])c1cc([N+](=O)[O-])c(O)c([N+](=O)[O-])c1` were, in that order, 1.72% and 1.65%.
For `O=[N+]([O-])c1ccc2c(c1)nnn2O` the same measures were 2.09% and 5.66%.
As to `COc1cc(C(=O)NCC2(N3CCOCC3)CCCCC2)cc(Cl)c1OC(C)C`, the % Hoechst-high responders turned out to be 1.37% and the toxicity was determined as 7.89%.
For `Cc1cc(C)cc(OP(C)(=O)Nc2ccc(C)cc2C)c1` (stereo not given) the same measures were 2.18% and 11.1%.
For `Cc1cccc(OCC(=O)OC2CN3CCC2CC3)c1` (stereo not given) the same measures were 1.51% and 5.55%.
For `CCOC(=O)c1ccc(NP(C)(=O)Oc2cc(C)cc(C)c2)cc1` (stereo not given) the same measures were 20.4% and 23.7%.
Consider `Cc1ccc(NCCc2c([N+](=O)[O-])cc([N+](=O)[O-])cc2[N+](=O)[O-])cc1`, for which the % Hoechst-high responders worked out at 2.64% and the toxicity was 4.77%.
The compound `CP(=O)(Nc1cccc(Br)c1)Oc1ccccc1` (stereo not given) displayed a % Hoechst-high responders of 2.12% and a toxicity of 0.771%.
The like results for `Cc1cc(C)cc(OP(C)(=O)Nc2ccccn2)c1` (stereo not given) were, in that order, 2.32% and 5.22%.
For `Cc1ccc(C)c(NP(C)(=O)Oc2ccccc2)c1` (stereo not given) the same measures were 0.96% and 4.24%.
For `CCOP(=O)(Nc1cccc2ccccc12)OCC` the same measures were 1.42% and 5.11%.
`Cc1c2c(nc3ccccc13)SC(C(Cl)Cl)C2` (stereo not given) registered a % Hoechst-high responders of 1.52% and a toxicity of 0.0746%.
Compound `CCN(CC)CCCOC(=O)C(O)(c1ccccc1)c1ccccc1` had a % Hoechst-high responders of 2.23% and a toxicity of 9.82%.
The like results for `Cc1cc(=O)[nH]c(N[N+](=O)[O-])n1` were, in that order, 2.15% and 8.71%.
In turn, `O=C(OC1CN2CCC1CC2)C12CC3CC(CC(C3)C1)C2` (stereo not given) returned a % Hoechst-high responders of 1.14% and a toxicity of 2.92%.
Take `COc1ccc2nc(NP(=O)(c3ccccc3)c3ccccc3)sc2c1`: the % Hoechst-high responders amounted to 1.34% and the toxicity was 5.87%.
The like results for `COc1ccc(N/C(=N/P(=O)(N2CCOCC2)N2CCOCC2)N2CCOCC2)cc1` were, in that order, 1.84% and 10.7%.
`Cc1cccc(C)c1OP(C)(N)=O` (stereo not given) had a % Hoechst-high responders of 3.86% and a toxicity of 8.6%.
For `CC(C)(C)c1ccc(OP(C)(=O)Nc2ccc(SC(F)(F)F)cc2)cc1` (stereo not given) the same measures were 2.79% and 7.07%.
The like results for `Cc1ccc2nc3c(c(C)c2c1)CC(C(Cl)Cl)S3` (stereo not given) were, in that order, 2.85% and 8.99%.
For `O=[N+]([O-])c1ccc2c(c1)C=Nc1ccccc1O2` the same measures were 1.56% and 4.6%.
In turn, `ClCCSc1nnc(-c2cccnc2)o1` returned a % Hoechst-high responders of 2.24% and a toxicity of 7.98%.
For `CCOC(=O)c1ccc(NP(C)(=O)Oc2ccccc2)cc1` (stereo not given) the same measures were 1.67% and 0.847%.
Take `Cc1ccc(NP(C)(=O)Oc2ccccc2)c(C)c1` (stereo not given): the % Hoechst-high responders was determined as 1.97% and the toxicity worked out at 2.63%.
For `COc1ccccc1OP(C)(=O)Nc1ccc(C)cc1` (stereo not given) the same measures were 1.63% and 6.98%.
`O=[N+]([O-])c1cc([N+](=O)[O-])c(-c2ccn[nH]2)s1` returned a % Hoechst-high responders of 2.55% and a toxicity of 7.98%.
The like results for `COc1ccc(OP(C)(=O)Nc2cccc(F)c2)cc1` (stereo not given) were, in that order, 1.44% and 10.1%.
For `CCN(CC)C(=S)SC(NC=O)C(Cl)(Cl)Cl` (stereo not given) the same measures were 1.73% and 8.85%.
The like results for `COc1ccccc1OP(C)(=O)Nc1cc(Cl)ccc1C` (stereo not given) were, in that order, 1.78% and 9.07%.
In turn, `CC(C)NC(=O)NP(=O)(Oc1ccccc1)Oc1ccccc1` yielded a % Hoechst-high responders of 2.18% and a toxicity of 3.82%.
For `Cc1cc(C)cc(OP(C)(N)=O)c1` (stereo not given) the same measures were 2.12% and 6.8%.
With `Cc1cc(SC(NC(=O)c2ccccc2)C(Cl)(Cl)Cl)nc(C(C)C)n1` (stereo not given), the % Hoechst-high responders came to 2.28% and the toxicity stood at 6.61%.
For `CP(=S)(Nn1cnnc1)Oc1ccccc1` (stereo not given) the same measures were 1.25% and 5.03%.
For `COc1ccccc1OP(C)(=O)Nc1ccccc1` (stereo not given) the same measures were 1.08% and 1.9%.
For `O=P(Nc1ccccn1)(c1cccc2ccccc12)c1cccc2ccccc12` the same measures were 3.27% and 6.82%.
For the compound `Cc1cc(SC(NC=O)C(Cl)(Cl)Cl)ncn1` (stereo not given), the % Hoechst-high responders is 2.51% and the toxicity worked out at 7.13%.
For `CP(=O)(Nc1ccccc1Br)Oc1ccccc1` (stereo not given) the same measures were 2.02% and 8.67%.
The like results for `CP(=O)(Oc1ccccc1)OC(c1ccccc1)C(F)(F)F` (stereo not given) were, in that order, 3.04% and 7.87%.
For `Cc1cccc(C)c1OP(C)(=O)Nc1ccc(SC(F)(F)F)cc1` (stereo not given) the same measures were 2.11% and 4.09%.
The compound `COP1(=S)c2c(C)nn(CCC#N)c2N=C(c2ccc(F)cc2)N1C` (stereo not given) registered a % Hoechst-high responders of 2.75% and a toxicity of 4.17%.
For `Cc1cc(C)cc(OP(C)(=O)Nc2ccc(SC(F)(F)F)cc2)c1` (stereo not given) the same measures were 2.74% and 5.99%.
The like results for `O=C(COc1ccccc1)OC1CN2CCC1CC2` (stereo not given) were, in that order, 5.78% and 8.47%.
The compound `CP(=O)(NC(=O)Nc1ccccc1)Oc1ccccc1` (stereo not given) showed a % Hoechst-high responders of 3.45% and a toxicity of 4.85%.
The like results for `CCOP(C)(=S)SCC(=O)NC(C)C(=O)O` (stereo not given) were, in that order, 1.08% and 5.34%.
`CCOC(=O)c1ccc(NP(C)(=O)Oc2ccc(OC)cc2)cc1` (stereo not given): the % Hoechst-high responders was 3.44% and the toxicity is 7.36%.
`CCC(C)N(CC(C)C)C(=S)SC(NC(C)=O)C(Cl)(Cl)Cl` (stereo not given): the % Hoechst-high responders was determined as 0.874% and the toxicity came out at 0.21%.
The like results for `CP(=O)(Nc1ccccn1)Oc1ccc(Cl)cc1` (stereo not given) were, in that order, 1.1% and 4.02%.
